A short description of the assay: qHTS Assay to Find Inhibitors of Chronic Active B-Cell Receptor Signaling. As to conditions: ABC-DLBCL IkBa-CBG/CBR reporter, luminescence ratio (green luciferase fused to IkBa over red control in TMD8 lymphoma cells), 4 h. The procedure, abridged: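 TMD8 human ABC-DLBCL cells with doxycycline-inducible IκBα–green luciferase fusion and unfused red luciferase, in 0.5% FBS medium; compounds up to 46 uM, 4 h at 37C. Green/red luminescence ratio, filter-overlap corrected, fitted to concentration-response curves.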
(In general: Quantitative high-throughput screening tests each substance at several concentrations.)

The mark [1] stands for this setting: measured here: CBR red luminescence, cell number.
[2] abbreviates: measured here: IkBa-CBG green luminescence.

Some of the results follow. Further columns of the screen follow, without active or inactive calls. The list favours compounds with an active or inconclusive main result. Potencies come from curve fits of mixed quality, noted in brackets.

By AC50 is commonly meant the midpoint of the concentration-response curve, whichever way the signal moves. In the case of `Cc1ccc(N2CCN(CC3CC=CCC3)CC2)cc1` (centres undefined), the AC50 under setting [1] is 35.5 µM [rising, single point]. Still for that read-out and setting: with `O=C(/C=C/c1ccccc1Cl)Nc1ccc2c(c1)C(=O)NC2=O` the figure was 0.316 µM [falling, full curve]; with `NS(=O)(=O)c1ccc(NC(=O)COC(=O)c2cn(-c3ccccc3)nc2-c2ccc(F)cc2)cc1`, 18.4 µM [rising, single point]; with `COCCC(=O)N1CCC(Oc2ccc(C(=O)N3CCC(N(C)C)C3)cc2)CC1` (centres undefined), 6.31 µM [falling, single point]. Same read-out and setting: with `O=C(/C=C/c1ccccc1)NC(=S)Nc1ncccn1` the figure was 17.8 µM [falling, single point]; with `O=C(CNC(=O)c1ccc(F)cc1)N/N=C/c1cc(Br)ccc1OCc1ccccc1`, 4.11 µM [rising, full curve, poor fit]; with `Cc1ccc(NC(=O)CSCC(=O)Nc2cc(C(F)(F)F)ccc2N2CCOCC2)cc1`, 11.6 µM [falling, partial curve, poor fit]. `O=C(CNCc1ccccc1)Nc1ccc(Oc2ccccc2)cc1`: the AC50 was 15.8 µM [rising, partial curve] under setting [1] and 12.6 µM [falling, partial curve] under setting [2].

Take `CC(=O)Nc1ccc(SC[C@H](c2ccccc2)N2CCN(CCc3ccccc3)CCC2=O)cc1`: the AC50 under setting [1] was 0.282 µM [rising, full curve, poor fit].

For the compound `O=C(NC(C(=O)O)c1ccccc1)c1ccccc1` (centres undefined), the AC50 under setting [1] was 1.64 µM [rising, partial curve, poor fit]. With `O=C(NNc1nc2ccccc2s1)c1ccccc1F`, the AC50 under setting [1] is 35.5 µM [falling, single point]. Still for that read-out and setting: under `CN(C)c1ccc(NC(=O)c2sc(SCC(=O)Nc3nccs3)nc2N)cc1` stands 5.8 µM [falling, partial curve, poor fit]. Take `CC(C)(Oc1ccc(Cl)cc1)C(=O)NC1=NN(c2ccccc2)C(=O)C1`: the AC50 reads like this: under setting [1], 32.6 µM [falling, single point]; under setting [2], 23.1 µM [rising, partial curve, poor fit]. As for `CC(=O)c1c(C)oc2ccc(NS(=O)(=O)c3ccc(F)cc3C)cc12`, the AC50 under setting [1] was 35.5 µM [falling, single point]. On the same count and under the same terms, under `CCOc1ccc2c(c1)S/C(=C\c1cccs1)C(=O)N2` stands 7.08 µM [rising, partial curve, poor fit]. Still for that read-out and setting: with `O=C(CSCc1ccccc1Cl)N1CCN(c2ccc(F)cc2)CC1` the figure was 0.0891 µM [rising, full curve, poor fit]; with `CC(=O)c1cccc(NC(=O)Nc2c(C)nn(C)c2C)c1`, 32.6 µM [falling, single point].

(Values after PubChem BioAssay AID493014 (National Center for Advancing Translational Sciences (NCATS), 2011).)
